Construct, isoform or probe ends are uncertain for at least one entry. For some assays here: At least one verdict was read from the data and is not stated in words by the source.

Protein sequences, listed by entry. Tags and fused reporters are not part of them. Lines headed by an entry give the natural chain unless they say otherwise; changes in a name come on top.
UniProt P19793: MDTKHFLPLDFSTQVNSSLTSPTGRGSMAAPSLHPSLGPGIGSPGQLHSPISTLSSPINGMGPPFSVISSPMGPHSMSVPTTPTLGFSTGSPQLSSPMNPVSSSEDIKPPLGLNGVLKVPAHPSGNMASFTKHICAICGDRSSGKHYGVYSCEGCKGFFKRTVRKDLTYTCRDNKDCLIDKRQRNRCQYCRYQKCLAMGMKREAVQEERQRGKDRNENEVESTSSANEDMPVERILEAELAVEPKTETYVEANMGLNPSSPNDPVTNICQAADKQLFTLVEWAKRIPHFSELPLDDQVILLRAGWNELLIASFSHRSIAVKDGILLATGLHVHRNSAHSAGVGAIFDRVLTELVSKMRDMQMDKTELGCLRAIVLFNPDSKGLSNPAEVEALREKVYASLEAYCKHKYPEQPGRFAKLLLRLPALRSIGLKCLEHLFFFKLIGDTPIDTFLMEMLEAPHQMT

This is an account of results in PMC5640644, “HDX reveals the conformational dynamics of DNA sequence specific VDR co-activator interactions” (Nature Communications, 2017).

In series [1] the test system is VDR (His-hVDR, del151-190) + RXRα (Flag-hRXRα). Put plainly: HDX-MS. The following applies: HDX: heterodimer ~10 uM, DNA 1.5x molar ratio, ligand 10x excess, protein buffer 50 mM Tris pH 8.0, 150 mM NaCl, 10% glycerol, 2 mM DTT, recombinant protein, protein details: His,Flag.
For series [2] the test system is unchanged. As to the kind of experiment: EMSA. The note with it: ligand-free; HDX: heterodimer ~10 uM, DNA 1.5x molar ratio, ligand 10x excess; protein buffer 50 mM Tris pH 8.0, 150 mM NaCl, 10% glycerol, 2 mM DTT; recombinant protein; protein details: His,Flag.
Series [3] has as its target RXRα (Flag-hRXRα) (Homo sapiens) (UniProt P19793). Put plainly: HDX-MS. The note with it: Cmpd1, no VDR; HDX: heterodimer ~10 uM, DNA 1.5x molar ratio, ligand 10x excess; protein buffer 50 mM Tris pH 8.0, 150 mM NaCl, 10% glycerol, 2 mM DTT; recombinant protein; residues 1-462; protein details: Flag.

Take “GGTGACTCACCGGGTGAACGGGGGCA (double strand) [BGLAP* VBS (human)]”: the binding result in series [1] (1,25D3) is listed as “binds”.
On to “CTAGGTGAATGAGGACAT (double strand) [BGLAP VBS (rat)]”, for which the binding result in series [1] (1,25D3) and in series [1] (Cmpd3) was “binds” throughout.
Turning to “CAAGGGGTAGTGAGGTCAAAAGCA (double strand) [TRPV6 VBS]”, the binding result in series [1] (1,25D3) and in series [1] (Cmpd3) was “binds” in each case.
On to “CTAGCTCCCGAGGTCAGCGACGGCGCAGG (double strand) [DR3 half-site VBS]”, for which the binding result in series [1] (1,25D3), in series [1] (Cmpd1), in series [1] (Cmpd2) and in series [2] was “binds” each time.
In the case of “CGTAGGTCAATCAGGTCACGTCGT (double strand) [DR3 VBS]”, the binding result in series [3], in series [1] (1,25D3), in series [1] (Cmpd1), in series [1] (Cmpd2) and in series [2] was “binds” each time.
